# The exact form of at least one protein or probe is not confirmed.
# Protein sequences, listed by entry. Tags and fused reporters are not part of them.
# UniProt Q13148, whole entry: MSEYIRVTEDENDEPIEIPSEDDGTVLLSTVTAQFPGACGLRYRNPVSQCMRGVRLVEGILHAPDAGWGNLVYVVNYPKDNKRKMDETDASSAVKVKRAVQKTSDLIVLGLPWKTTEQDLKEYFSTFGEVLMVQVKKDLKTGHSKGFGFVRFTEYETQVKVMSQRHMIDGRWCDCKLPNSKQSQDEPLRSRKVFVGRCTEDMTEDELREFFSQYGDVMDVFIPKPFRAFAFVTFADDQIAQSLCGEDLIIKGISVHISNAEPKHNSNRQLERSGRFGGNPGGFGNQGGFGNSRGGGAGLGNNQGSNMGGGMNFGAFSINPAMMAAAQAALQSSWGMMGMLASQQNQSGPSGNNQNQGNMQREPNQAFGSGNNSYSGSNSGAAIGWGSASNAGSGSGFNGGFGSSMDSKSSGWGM
# Legend:
# TDP-43-MBP-His6 12A = TDP-43-MBP-His6 12A (UniProt Q13148); test: EMSA; details: comparable to Wt; 20 mM NaPO4 pH 8, 150 mM NaCl, 1 mM DTT, 5 mM MgCl2, 0.5 mg/ml BSA, 0.1 mg/ml yeast tRNA, 5% glycerol, 1 U/ul RNase inhibitor, 20 min RT; 16 nM Cy5-RNA, 0-1.6 uM protein; recombinant protein; protein details: C-terminal TEV site-MBP-His6; label: 5' Cy5
# TDP-43-MBP-His6 12D = TDP-43-MBP-His6 12D (UniProt Q13148); test: EMSA; details: comparable to Wt; 20 mM NaPO4 pH 8, 150 mM NaCl, 1 mM DTT, 5 mM MgCl2, 0.5 mg/ml BSA, 0.1 mg/ml yeast tRNA, 5% glycerol, 1 U/ul RNase inhibitor, 20 min RT; 16 nM Cy5-RNA, 0-1.6 uM protein; recombinant protein; protein details: C-terminal TEV site-MBP-His6; label: 5' Cy5
sequence,measurement,setting,value
UGUGUGUGUGUGUGUGUGUGUGUG [(UG)12 RNA],binding result,TDP-43-MBP-His6 12A,binds
same,binding result,TDP-43-MBP-His6 12D,binds

# Source: paper PMC9016352
